Measured data: PubChem BioAssay AID1259425 (University of Nebraska Medical Center, 2018)

Test: 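Find knockdowns that reproduce the gene expression pattern seen when KSR1 is lost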 (primary screen)
Cell system: HCT116 human colon cancer cells
Knock-down reagent: siRNA pool against human genes, 50 nM siRNA
Measured: 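mRNA of six signature genes measured together by branched-DNA assay after 50 nM siRNA pool, blank removed, divided by geometric mean of two housekeeping genes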
Reading the numbers: BNIP3L mRNA: higher = more BNIP3L transcript after knockdown
This is a random part of about 14,000 reagents. Further read-outs or replicates are left out here. The record does not give: the time to read-out.

target gene | BNIP3L mRNA, set 1
SOAT1 | 0.0492
ZNF70 | 0.269
PIAS3 | 0.0927
FIBCD1 | 0.086
TOX4 | 0.111
STYX | 0.0772
DCC | 0.07
TNFSF9 | 0.0904
PLAGL2 | 0.194
TCTA | 0.0462
COL1A2 | 0.119
XBP1 | 0.0772
JOSD1 | 0.0707
CR1L | 0.0576
MYO1E | 0.128
PTPN20 | 0.103
NDUFA10 | 0.0982
FYRD1 | 0.428
PTPN22 | 0.0563
EIF4EBP3 | 0.155
DDT | 0.0566
SEMA6A | 0.121
CKLF | 0.0606
METTL22 | 0.118
PSMB8 | 0.083
PI15 | 0.148
HSPA9 | 0.172
MAX | 0.252
APBB2 | 0.134
SERTAD4 | 0.0895
PTGIR | 0.209
ATP5PB | 0.0988
FMR1 | 0.12
IGFLR1 | 0.133
ICA1 | 0.053
DNAJA1 | 0.182
ZDHHC5 | 0.185
SGIP1 | 0.204
SACK1A | 0.16
CD59 | 0.106
COQ2 | 0.19
H2AC6 | 0.144
ZNF711 | 0.201
TAS2R3 | 0.166
ANKRD40CL | 0.297
NPY | 0.216
CDHR5 | 0.101
MYCBP2 | 0.0889
NPAS2 | 0.145
CHST3 | 0.162

5 entries from above, arranged by “BNIP3L mRNA, set 1”, lowest first.
target gene | BNIP3L mRNA, set 1
SERTAD4 | 0.0895
APBB2 | 0.134
HSPA9 | 0.172
PTGIR | 0.209
MAX | 0.252
